PubChem BioAssay AID328 (DTP/NCI, 2004)
The list is a part of this screen's results and no random one: its compounds were picked by chemical class. Not every dose and run of a compound is shown. T/C: endpoint of the treated group in % of that of the vehicle group. Some entries give survivors of the animals treated and no T/C: the source holds a T/C of zero for them, seemingly a mark for toxic or unscored doses. Some survivor counts are full or nearly so, which does not show that the dose was tolerated: survival well below the control is almost never listed, so the zero probably covers shortened survival too. Counts of survivors are from the toxicity check (mostly the fifth day) where no day follows; animals may have died later. Schedules are NCI's codes, read here as Q, the interval in days (D) or hours (H), X, the number of doses. Some entries hold several experiments; the results are listed from low to high. For survival time, this PubChem deposit counts one and a half times the control or more as active, and values a quarter to a half above the control carry no call in these data; other NCI protocols may use other cut-offs. Some T/C values carry the count of animals alive at the toxicity check (mostly the fifth day); without a count or a note in brackets, all were alive then.

System: BDF1 mice, P388 leukemia ip, median survival T/C
Experiment: NCI In Vivo Anticancer Drug Screen. Data for tumor model P388 Leukemia (intraperitoneal) in B6D2F1 (BDF1) mice
Conditions: T/C endpoint: median survival time, higher T/C = longer survival
In short: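 Reported as T/C, where T is the survival measurement in dosed animals and C the same measurement in vehicle controls.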

SMILES: N#C/C(=C\c1ccc(N(CCBr)CCBr)cc1)C(N)=O
- T/C (dose: 0.01 mg/kg/injection, schedule: Q01DX009 (ip), vehicle: Klucel (hydroxypropylcellulose) (HPC)): 115 % of control
- T/C (dose: 0.03 mg/kg/injection, schedule: Q01DX009 (ip), vehicle: Klucel (hydroxypropylcellulose) (HPC)): 140 % of control
- T/C (dose: 0.06 mg/kg/injection, schedule: Q01DX009 (ip), vehicle: Klucel (hydroxypropylcellulose) (HPC)): 140 % of control
- T/C (dose: 0.12 mg/kg/injection, schedule: Q01DX009 (ip), vehicle: Klucel (hydroxypropylcellulose) (HPC)): 130 % of control
- T/C (dose: 0.12 mg/kg/injection, schedule: Q01DX009 (ip), vehicle: saline with Tween-80): 95 % of control
- T/C (dose: 0.25 mg/kg/injection, schedule: Q01DX009 (ip), vehicle: saline with Tween-80): 159 % of control
- T/C (dose: 0.5 mg/kg/injection, schedule: Q01DX009 (ip), vehicle: saline with Tween-80): 168 % of control
- T/C (dose: 0.75 mg/kg/injection, schedule: Q01DX009 (ip), vehicle: Klucel (hydroxypropylcellulose) (HPC)): 153 % of control
- T/C (dose: 0.9 mg/kg/injection, schedule: Q04DX003 (ip), vehicle: Klucel (hydroxypropylcellulose) (HPC)): 120 % of control
- T/C (dose: 1.0 mg/kg/injection, schedule: Q01DX009 (ip), vehicle: Klucel (hydroxypropylcellulose) (HPC)): 150 % of control
- T/C (dose: 1.0 mg/kg/injection, schedule: Q01DX009 (ip), vehicle: saline with Tween-80): 168 % of control
- T/C (dose: 1.3 mg/kg/injection, schedule: Q04DX003 (ip), vehicle: Klucel (hydroxypropylcellulose) (HPC)): 137 % of control
- T/C (dose: 1.5 mg/kg/injection, schedule: Q01DX009 (ip), vehicle: Klucel (hydroxypropylcellulose) (HPC)): 173 % of control
- T/C (dose: 2.0 mg/kg/injection, schedule: Q01DX009 (ip), vehicle: Klucel (hydroxypropylcellulose) (HPC)): 110 % of control
- T/C (dose: 2.0 mg/kg/injection, schedule: Q01DX009 (ip), vehicle: saline with Tween-80): 231 % of control
- T/C (dose: 2.0 mg/kg/injection, schedule: Q04DX003 (ip), vehicle: Klucel (hydroxypropylcellulose) (HPC)): 150 and 172 % of control
- T/C (dose: 3.0 mg/kg/injection, schedule: Q01DX009 (ip), vehicle: Klucel (hydroxypropylcellulose) (HPC)): 230 % of control
- T/C (dose: 3.0 mg/kg/injection, schedule: Q04DX003 (ip), vehicle: Klucel (hydroxypropylcellulose) (HPC)): 177 % of control
- T/C (dose: 3.12 mg/kg/injection, schedule: Q01DX009 (ip), vehicle: Klucel (hydroxypropylcellulose) (HPC)): 210 % of control
- T/C (dose: 4.0 mg/kg/injection, schedule: Q01DX009 (ip), vehicle: Klucel (hydroxypropylcellulose) (HPC)): 190 % of control [5 of 6 alive]
- survivor count (dose: 4.0 mg/kg/injection, schedule: Q01DX009 (ip), vehicle: saline with Tween-80): 6 of 6
- T/C (dose: 4.5 mg/kg/injection, schedule: Q01DX009 (ip), vehicle: Klucel (hydroxypropylcellulose) (HPC)): 165 % of control
- T/C (dose: 5.0 mg/kg/injection, schedule: Q04DX003 (ip), vehicle: Klucel (hydroxypropylcellulose) (HPC)): 172 % of control
- T/C (dose: 6.25 mg/kg/injection, schedule: Q01DX009 (ip), vehicle: Klucel (hydroxypropylcellulose) (HPC)): 115 % of control
- survivor count (dose: 8.0 mg/kg/injection, schedule: Q01DX009 (ip), vehicle: Klucel (hydroxypropylcellulose) (HPC)): 2 of 6
- T/C (dose: 8.0 mg/kg/injection, schedule: Q04DX003 (ip), vehicle: Klucel (hydroxypropylcellulose) (HPC)): 196 % of control
- T/C (dose: 12.0 mg/kg/injection, schedule: Q04DX003 (ip), vehicle: Klucel (hydroxypropylcellulose) (HPC)): 230 % of control
- survivor count (dose: 12.5 mg/kg/injection, schedule: Q01DX009 (ip), vehicle: Klucel (hydroxypropylcellulose) (HPC)): 2 of 6 and 6 of 6
- T/C (dose: 12.5 mg/kg/injection, schedule: Q04DX003 (ip), vehicle: Klucel (hydroxypropylcellulose) (HPC)): 154 % of control
- T/C (dose: 18.0 mg/kg/injection, schedule: Q04DX003 (ip), vehicle: Klucel (hydroxypropylcellulose) (HPC)): 161 % of control
- survivor count (dose: 25.0 mg/kg/injection, schedule: Q01DX009 (ip), vehicle: Klucel (hydroxypropylcellulose) (HPC)): 0 of 6
- T/C (dose: 25.0 mg/kg/injection, schedule: Q04DX003 (ip), vehicle: Klucel (hydroxypropylcellulose) (HPC)): 87 % of control
- survivor count (dose: 50.0 mg/kg/injection, schedule: Q01DX009 (ip), vehicle: Klucel (hydroxypropylcellulose) (HPC)): 0 of 6
- survivor count (dose: 50.0 mg/kg/injection, schedule: Q04DX003 (ip), vehicle: Klucel (hydroxypropylcellulose) (HPC)): 1 of 6
- survivor count (dose: 100.0 mg/kg/injection, schedule: Q04DX003 (ip), vehicle: Klucel (hydroxypropylcellulose) (HPC)): 0 of 6
- survivor count (dose: 200.0 mg/kg/injection, schedule: Q04DX003 (ip), vehicle: Klucel (hydroxypropylcellulose) (HPC)): 0 of 6
- survivor count (dose: 400.0 mg/kg/injection, schedule: Q04DX003 (ip), vehicle: Klucel (hydroxypropylcellulose) (HPC)): 0 of 6

SMILES: COC(=O)c1ccccc1C[N+](C)(CCCl)CCCl
- T/C (dose: 0.2 mg/kg/injection, schedule: Q01DX009 (ip), vehicle: saline): 86 % of control
- T/C (dose: 0.31 mg/kg/injection, schedule: Q01DX009 (ip), vehicle: saline): 100 % of control
- T/C (dose: 0.47 mg/kg/injection, schedule: Q01DX009 (ip), vehicle: saline): 125 % of control
- T/C (dose: 0.71 mg/kg/injection, schedule: Q01DX009 (ip), vehicle: saline): 162 % of control
- T/C (dose: 1.08 mg/kg/injection, schedule: Q01DX009 (ip), vehicle: saline): 155 % of control
- T/C (dose: 2.17 mg/kg/injection, schedule: Q01DX009 (ip), vehicle: saline): 130 % of control
- T/C (dose: 2.87 mg/kg/injection, schedule: Q01DX009 (ip), vehicle: saline): 110 and 145 % of control
- T/C (dose: 4.35 mg/kg/injection, schedule: Q01DX009 (ip), vehicle: saline): 154 and 155 % of control
- T/C (dose: 6.52 mg/kg/injection, schedule: Q01DX009 (ip), vehicle: saline): 145 and 172 % of control
- T/C (dose: 7.1 mg/kg/injection, schedule: Q01DX001 (ip), vehicle: saline): 100 % of control
- T/C (dose: 9.2 mg/kg/injection, schedule: Q01DX009 (ip), vehicle: saline): 200 % of control
- T/C (dose: 10.0 mg/kg/injection, schedule: Q01DX001 (ip), vehicle: saline): 109 % of control
- T/C (dose: 10.5 mg/kg/injection, schedule: Q04DX003 (ip), vehicle: saline): 100 % of control
- T/C (dose: 16.25 mg/kg/injection, schedule: Q01DX001 (ip), vehicle: saline): 129 % of control
- T/C (dose: 21.0 mg/kg/injection, schedule: Q04DX003 (ip), vehicle: saline): 100 % of control
- T/C (dose: 21.7 mg/kg/injection, schedule: Q01DX001 (ip), vehicle: saline): 109 % of control

SMILES: OC(CNCCCl)C(O)C(O)C(O)CNCCCl (centres undefined)
- T/C (dose: 3.13 mg/kg/injection, schedule: Q01DX010 (ip), vehicle: saline): 131 % of control
- T/C (dose: 6.25 mg/kg/injection, schedule: Q01DX010 (ip), vehicle: saline): 172 % of control
- T/C (dose: 12.5 mg/kg/injection, schedule: Q01DX010 (ip), vehicle: saline): 259 % of control
- T/C (dose: 15.0 mg/kg/injection, schedule: Q01DX010 (ip), vehicle: water): 109 % of control
- T/C (dose: 25.0 mg/kg/injection, schedule: Q01DX010 (ip), vehicle: saline): 118 % of control
- survivor count (dose: 30.0 mg/kg/injection, schedule: Q01DX010 (ip), vehicle: water): 6 of 6
